Data reported in the supplement of paper PMC11348887.
Structures can show the parent of a compound that is named as a salt. Some of the results follow. Small differences around the control level are noise. Where a SMILES comes first, the peptide text is derived from it. [ ]: non-standard residue; d: D form. The star is where a group is joined. Dolaproine = CO[C@@H]([C@@H]1CCCN1)[C@@H](C)C(=O)O; Dil = CC[C@H](C)[C@H](NC)[C@@H](CC(=O)O)OC; X2 = C[C@@H](N*)[C@@H](O)c1ccccc1; NMeV = CN[C@H](C(=O)O)C(C)C

Experiments:
Settings in all cases: 5 µM; treatment: days 7-14 after plating, readout day 21
[1] = test system: hPSC-derived cortical neurons (WA09); assay: nucleus area z-score vs screen plate; higher = larger nuclei (more mature)
[2] = test system: hPSC-derived cortical neurons (WA09); assay: total neurite length per nucleus (MAP2) z-score; higher = more neurite growth
[3] = test system: hPSC-derived cortical neurons (WA09); assay: nucleus roundness z-score vs screen plate; higher = rounder nuclei (more mature)
[4] = test system: hPSC-derived cortical neurons (WA09); assay: KCl-induced FOS+/EGR-1+ double-positive nuclei fraction z-score (KCl minus unstimulated); higher = stronger activity-induced IEG response

| Structure (SMILES) | nucleus area z-score [1] | total neurite length per nucleus (z-score) [2] | nucleus roundness z-score [3] | KCl-induced FOS+/EGR-1+ double-positive nuclei fraction z-score [4] |
| --- | --- | --- | --- | --- |
| CC(=O)O[C@H]1C[C@@H]2CC[C@@H]3[C@H](CC[C@@]4(C)[C@H]3C[C@H]([N+]3(C)CCCCC3)[C@@H]4OC(C)=O)[C@@]2(C)C[C@@H]1[N+]1(C)CCCCC1 [Pancuronium dibromide] | 0.236 | -0.0267 | -0.475 | -0.294 |
| OC(c1ccccc1)(c1ccccc1)C1CCNCC1 [Azacyclonol] | -8.52 | -4.53 | -7.19 | -0.0867 |
| CN1CCc2cc3c(cc2C1C1OC(=O)c2c1ccc1c2OCO1)OCO3 (single isomer, unassigned; (+)) [(+)-Bicuculline] | -0.524 | 0.0655 | 0.61 | -0.0237 |
| Nc1ncnc2c1ccn2[C@@H]1O[C@H](CO)[C@@H](O)[C@H]1O [Tubercidin] | -19.2 | -6.63 | -2.96 | -1.3 |
| CC(C)=CCC[C@]1(C)C=Cc2c(O)c3c(c(CC=C(C)C)c2O1)O[C@]12C(=C[C@@H]4C[C@H]1C(C)(C)O[C@@]2(C/C=C(/C)C(=O)O)C4=O)C3=O [Gambogic Acid] | -18.1 | -5.3 | -6.67 | -0.834 |
| C[N+]1(C)CCCC(OC(=O)C(O)(c2ccccc2)c2ccccc2)C1 (stereo not drawn) [Mepenzolate Bromide] | 1.61 | -0.747 | 0.289 | 0.595 |
| COc1cc(C)[nH]c(=O)c1CNC(=O)c1c(C)n([C@H](C)C2CCOCC2)c2ccccc12 | 0.727 | 0.0164 | -1.04 | 0.0151 |
| C/C=C(\C)C(=O)N[C@@H](c1ccccc1)[C@@H](O)C(=O)O[C@H]1C[C@@]2(O)[C@@H](OC(=O)c3ccccc3)[C@@H]3[C@]4(OC(C)=O)CO[C@@H]4C[C@H](O)[C@@]3(C)C(=O)[C@H](OC(C)=O)C(=C1C)C2(C)C [Cephalomannine] | -2.39 | -1.2 | -2.03 | -0.617 |
| CC(O)(CS(=O)(=O)c1ccc(F)cc1)C(=O)Nc1ccc(C#N)c(C(F)(F)F)c1 (stereo not drawn) [Bicalutamide] | 1.14 | 0.229 | 1.21 | 1.25 |
| O=C(O[C@H]1C[N+]2(CCCOc3ccccc3)CCC1CC2)C(O)(c1cccs1)c1cccs1 [Aclidinium Bromide] | 0.0195 | 0.618 | 0.782 | -0.0694 |
| CN1C(=O)CCS(=O)(=O)C1c1ccc(Cl)cc1 (stereo not drawn) [Chlormezanone] | 0.551 | 0.114 | 0.43 | 4.24 |
| O=c1[nH]c2ccccc2n1CCCN1CCC(n2c(=O)[nH]c3cc(Cl)ccc32)CC1 [Domperidone] | 0.05 | -0.0622 | 0.127 | 2.54 |
| CC(=O)Nc1ccc(OC[C@](C)(O)C(=O)Nc2ccc([N+](=O)[O-])c(C(F)(F)F)c2)cc1 [Andarine] | 2.23 | 0.579 | 0.145 | 0.915 |
| COc1ccc2c(c1)/C(=C/c1cnc[nH]1)C(=O)N2 | -1.14 | -0.761 | -0.975 | -0.272 |
| O=[N+]([O-])/C=C/c1ccc2c(c1)OCO2 [MNS (3_4-Methylenedioxy-_-nitrostyrene_ MDBN)] | 0.0981 | 0.8 | 0.377 | -1.07 |
| CN1[C@@H]2CC[C@H]1C[C@@H](OC(=O)C(CO)c1ccccc1)C2 (stereo partly drawn) [Atropine] | -1.28 | 0.0538 | 1.27 | 0.4 |
| CCOc1ccccc1-n1c(C(C)N2CCN(C(=O)COc3ccc(Cl)cc3)CC2)nc2ccccc2c1=O (stereo not drawn) [Erastin] | -0.715 | 0.984 | 0.544 | -0.436 |
| CC(C)[C@]12O[C@H]1[C@@H]1O[C@]13[C@]1(O[C@H]1C[C@H]1C4=C(CC[C@@]13C)C(=O)OC4)[C@@H]2O [Triptolide (PG490)] | 0.551 | 0.799 | 0.681 | 0.353 |
| CN(C)C(=O)Oc1ccc[n+](C)c1 [Pyridostigmine Bromide] | 1.13 | -0.434 | -0.403 | 0.338 |
| COc1cc2c(cc1OC)[C@@]13CCN4CC5=CCO[C@H]6CC(=O)N2[C@H]1[C@H]6[C@H]5C[C@H]43 [Brucine sulfate salt hydrate] | -3.56 | -0.681 | -0.48 | -0.271 |
| C[C@]12CC[C@H]3[C@@H](CC[C@@]45O[C@@H]4C(O)=C(C#N)C[C@]35C)[C@@H]1CC[C@@H]2O [Trilostane] | 0.00479 | 1.18 | -0.383 | -0.173 |
| CC[C@H](C)[C@@H]([C@@H](CC(=O)N1CCC[C@H]1[C@H](OC)[C@@H](C)C(=O)N[C@H](C)[C@@H](O)c1ccccc1)OC)N(C)C(=O)[C@@H](NC(=O)[C@@H](NC)C(C)C)C(C)C [Monomethyl auristatin E (MMAE)] (H-[NMeV]V[Dil][Dolaproine]-X2) | -16.2 | -4.9 | -3.37 | -1.08 |
| CC(C)N(CCC(C(N)=O)(c1ccccc1)c1ccccn1)C(C)C (stereo not drawn) [Disopyramide Phosphate] | 0.811 | -1.13 | -0.849 | -0.512 |
| COc1ccc2c(c1)[C@]13CCCC[C@@H]1[C@H](C2)N(C)CC3 [Dextromethorphan hydrobromide hydrate] | -0.218 | 0.691 | 1.22 | -0.107 |
| CN1[C@@H]2C[C@@H](OC(=O)[C@H](CO)c3ccccc3)C[C@H]1[C@@H]1O[C@@H]12 [Scopolamine HBr] | -0.107 | 1.01 | 0.744 | 0.742 |
| COc1ccc(C(=O)N2CCCC2=O)cc1 [Aniracetam] | 0.944 | 0.779 | 0.613 | 2.03 |
| CC[C@@]1(O)C(=O)OCc2c1cc1n(c2=O)Cc2cc3ccccc3nc2-1 [Camptothecin] | 0.154 | -0.682 | -0.688 | -1.19 |

Sorted by molecular weight (ascending): part of the list above.

| Structure (SMILES) | nucleus area z-score [1] | total neurite length per nucleus (z-score) [2] | nucleus roundness z-score [3] | KCl-induced FOS+/EGR-1+ double-positive nuclei fraction z-score [4] |
| --- | --- | --- | --- | --- |
| CC[C@@]1(O)C(=O)OCc2c1cc1n(c2=O)Cc2cc3ccccc3nc2-1 [Camptothecin] | 0.154 | -0.682 | -0.688 | -1.19 |
| CC(O)(CS(=O)(=O)c1ccc(F)cc1)C(=O)Nc1ccc(C#N)c(C(F)(F)F)c1 (stereo not drawn) [Bicalutamide] | 1.14 | 0.229 | 1.21 | 1.25 |
| C/C=C(\C)C(=O)N[C@@H](c1ccccc1)[C@@H](O)C(=O)O[C@H]1C[C@@]2(O)[C@@H](OC(=O)c3ccccc3)[C@@H]3[C@]4(OC(C)=O)CO[C@@H]4C[C@H](O)[C@@]3(C)C(=O)[C@H](OC(C)=O)C(=C1C)C2(C)C [Cephalomannine] | -2.39 | -1.2 | -2.03 | -0.617 |
